Laboratory results published in PubChem BioAssay AID540276 (National Center for Advancing Translational Sciences (NCATS), 2011).
Out of some 300,000 compounds screened, about 5,400 (1.8%) were called active. Inconclusive means that the source gave no clear call. Such entries were picked first, then a sample of the others. Calls come from the whole dose curve; tested in HEK293 cells. A potency beside an inconclusive call is a rough fit, not a confirmed value.

assay: qHTS for inhibitors of binding or entry into cells for Marburg Virus; conditions: Marburg virus pseudotyped entry inhibition, cell reporter; series mostly up to 37.8 µM
Potency is the fitted concentration of half-maximal effect.

| SMILES | Potency |
| --- | --- |
| COc1cc(CN(C)CC(=O)c2[nH]c(C)c(C(C)=O)c2C)ccc1OC(F)F | inconclusive: 7.94 µM [inhibitor, partial curve] |
| O=C1CSC(c2ccc3c(c2)OCO3)N1c1ccc(Oc2ccccc2)cc1 (stereo not drawn) | inactive |
| CNCC/C=C1/c2ccccc2CSc2ccccc21 | inconclusive: 22.4 µM [inhibitor, single point] |
| Cc1c(C(=O)N2CCC3(CC2)OCCO3)sc2ncnc(N3CCN(c4ccccn4)CC3)c12 | inconclusive: 16.4 µM [inhibitor, partial curve, poor fit] |
| CCn1cc(CN2CCCC(C(=O)c3cccc(OC)c3)C2)c(C)n1 (stereo not drawn) | inconclusive: 28.2 µM [inhibitor, partial curve, poor fit] |
| CCN(CC(=O)Nc1ccc2c(c1)OCCO2)CC(=O)Nc1cc(C)on1 | inconclusive: 2 µM [activator, partial curve, poor fit] |
| CC(C)(C)C(=O)Nc1ccc(N=Nc2ccccc2)cc1 | inconclusive: 1.12 µM [inhibitor, full curve, poor fit] |
| CCN(CC)C(=O)CCc1nnc(Cc2cccc(C(F)(F)F)c2)o1 | inconclusive: 2.24 µM [activator, partial curve, poor fit] |
| CC(C)=C(NC(=O)c1ccccc1)C(=O)N/N=C/c1ccc(O)cc1 | inconclusive: 13 µM [activator, partial curve] |
| O=C(Nc1ccc(N2CCOCC2)cc1)Nc1ccc(Cl)c(Cl)c1 | inconclusive: 0.0041 µM [activator, full curve, poor fit] |
| Cc1ccc(C2C(C=Nc3c(C)n(C)n(-c4ccccc4)c3=O)=C(c3ccccc3)Oc3ccccc32)cc1 (stereo not drawn) | inconclusive: 22.4 µM [inhibitor, single point] |
| COCCn1cnc2c1c(=O)n(CC(=O)Nc1cc(C)on1)c(=O)n2Cc1ccccc1 | inactive |
| O=[N+]([O-])c1cc([N+](=O)[O-])c2cc(-c3cccnc3)[nH]c2c1 | inactive |
| Cc1cc(C)cc(N(C(=O)c2sc(C)nc2C)C(C(=O)NCc2ccco2)c2ccccc2)c1 (stereo not drawn) | inconclusive: 29.1 µM [inhibitor, single point] |
| COCCCNC(=O)CCCn1c(=O)c2ccccc2n(CC(=O)Nc2c(C)cccc2C)c1=O | inconclusive: 3.16 µM [inhibitor, partial curve] |
| O=C(c1ccc2c(Cl)c3c(nc2c1)CCCC3)N1CCN(c2cccc(C(F)(F)F)c2)CC1 | inactive |
| Cc1cc(C)nc(-n2nc(C)c(Sc3ccc(F)cc3)c2N)n1 | inactive |
| COC(=O)N/N=C/c1cc(Cl)cc(Cl)c1OCc1ccccc1 | inconclusive: 35.5 µM [activator, partial curve, poor fit] |
| Cc1cc(C(=O)CN2C(=O)C(=O)N(Cc3ccccc3)C2=O)c(C)n1CC1COc2ccccc2O1 (stereo not drawn) | inconclusive: 10 µM [inhibitor, partial curve, poor fit] |
| S=C(Nc1ccc2c(c1)OCCO2)Nc1ccccc1Cl | inactive |
| O=C(Nc1ccc(S(=O)(=O)N2CCOCC2)cc1)c1ccco1 | inconclusive: 35.5 µM [activator, partial curve, poor fit] |

| SMILES | Potency |
| --- | --- |
| COc1cc(OC)c(C(=O)/C=C/c2ccc(OCc3ccccc3)c(OC)c2)c(OC)c1 | active: 11.2 µM |
| COc1ccccc1C(=O)NNC(=O)CCC(=O)NCc1ccccc1 | inconclusive: 35.5 µM [inhibitor, single point] |
| O=C(N/N=C/c1ccccn1)c1[nH]c2ccc([N+](=O)[O-])cc2c1-c1ccccc1 | inconclusive: 35.5 µM [inhibitor, partial curve, poor fit] |
| O=C(OC(C(=O)Nc1cc(Cl)cc(Cl)c1)c1ccccc1)C1=COCCO1 (stereo not drawn) | inconclusive: 11.2 µM [inhibitor, single point] |
| O=C(Nc1ccc(Cl)cc1)NC1CCCCC1 | inactive |
| COc1cc(OC)c(OC)cc1/C=C/c1cc(C(F)(F)F)[nH]c(=O)n1 | inconclusive: 35.5 µM [inhibitor, single point] |
| CCCCCNC(=O)c1ccc2c(c1)ncn2-c1ccc(OC)cc1 | inconclusive: 11.2 µM [inhibitor, single point] |
| CCc1ccc(NC(=O)C(C)OC(=O)c2ccc(NS(=O)(=O)c3ccc(C)c([N+](=O)[O-])c3)cc2)cc1 (stereo not drawn) | inconclusive: 20 µM [inhibitor, single point] |
| CC(C)(C)NS(=O)(=O)c1ccc(CCC(=O)Nc2cc(Cl)ccc2Oc2ccccc2)cc1 | active: 8.91 µM |
| Cc1ccc(NC(=O)c2ccc3c(c2)C(=O)N(CC2CCCO2)C3=O)cc1C (stereo not drawn) | inactive |
| O=[N+]([O-])c1ccc(N2CCN(S(=O)(=O)c3ccc(Cl)c(Cl)c3)CC2)cc1NCCN1CCOCC1 | inconclusive: 2.82 µM [inhibitor, partial curve] |
| O=C(CN1C(=O)c2ccccc2C1=O)c1ccccc1 | inactive |
| Cc1ccc2nc(Cl)c3cc(C(=O)NCCCN(C)Cc4ccccc4)sc3c2c1 | inconclusive: 14.1 µM [inhibitor, single point] |
| CCCOc1ccc2c(c1)C(=NN=C(N)N)c1cc(OCCC)ccc1-2 | inconclusive: 22.4 µM [inhibitor, partial curve, poor fit] |
| COc1cccc2cc(C(=O)Nc3ccccc3C(=O)N3CCOCC3)oc12 | inconclusive: 17.8 µM [inhibitor, partial curve, poor fit] |
| O=C1NC(=Nc2ccc(O)cc2)S/C1=C/c1ccco1 | inconclusive: 2.31 µM [inhibitor, full curve] |
| CCOC(=O)C1CCN(C(=O)/C=C/c2ccccc2)CC1 | inconclusive: 35.5 µM [activator, partial curve, poor fit] |
| CSc1nc2sc(-c3ccccc3)cc2c(=O)n1N | inactive |
| Cc1nc(N=C(N)N)nc2c(C)cccc12 | inconclusive: 17.8 µM [inhibitor, single point] |
| Cn1c(=O)c2c(nc(-c3ccc(N(CCCl)CCCl)cc3)n2C)n(C)c1=O | inconclusive: 22.4 µM [inhibitor, single point] |
| CCOP(=S)(OCC)Oc1ccc2c(C)c(Cl)c(=O)oc2c1 | inconclusive: 3.55 µM [inhibitor, partial curve, poor fit] |

Exported as tab-separated lines: entries from further up.
SMILES	Potency
COc1ccccc1C(=O)NNC(=O)CCC(=O)NCc1ccccc1	inconclusive: 35.5 µM [inhibitor, single point]
CCOP(=S)(OCC)Oc1ccc2c(C)c(Cl)c(=O)oc2c1	inconclusive: 3.55 µM [inhibitor, partial curve, poor fit]

Quoted at random: 2 records from the list

| SMILES | Potency |
| --- | --- |
| O=C(OC(C(=O)Nc1cc(Cl)cc(Cl)c1)c1ccccc1)C1=COCCO1 (stereo not drawn) | inconclusive: 11.2 µM [inhibitor, single point] |
| CC(C)(C)NS(=O)(=O)c1ccc(CCC(=O)Nc2cc(Cl)ccc2Oc2ccccc2)cc1 | active: 8.91 µM |

Next results follow:

| SMILES | Potency |
| --- | --- |
| CCOC(CCn1c(SCc2cccc([N+](=O)[O-])c2)nc2ccccc2c1=O)OCC | inconclusive: 22.4 µM [inhibitor, partial curve, poor fit] |
| CCOC(=O)c1c(C)[nH]c(C(=O)COC(=O)C(C)N2C(=O)C3CCCCC3C2=O)c1C (stereo not drawn) | inconclusive: 18.3 µM [inhibitor, partial curve, poor fit] |
| CCN(CC)S(=O)(=O)c1cc(C(=O)Nc2ccncc2)ccc1Cl | inconclusive: 3.66 µM [inhibitor, full curve, poor fit] |
| O=C(c1cc2n(n1)C(C(F)(F)F)CC(c1ccco1)N2)N1CCc2ccccc2C1 (stereo not drawn) | inconclusive: 35.5 µM [inhibitor, single point] |
| CN1CCN(C(=O)Cn2ncc3c4ccccc4n(Cc4ccc(Cl)cc4)c3c2=O)CC1 | inconclusive: 17.8 µM [inhibitor, partial curve, poor fit] |
| CCOC(=O)N/N=C/c1cn(CCCOc2ccc(C)cc2)c2ccccc12 | active: 7.08 µM |
| CN(C)CCN(C(=O)CN1C(=O)c2ccccc2C1=O)c1nc2cc3c(cc2s1)OCO3 | inactive |
| O=C(NCc1cccs1)c1cccnc1SCCS(=O)(=O)c1ccc(C(F)(F)F)cn1 | inconclusive: 12.6 µM [inhibitor, partial curve, poor fit] |
| CCC(=O)NC(=S)Nc1ccc(NC(=O)c2ccc([N+](=O)[O-])cc2)cc1 | inconclusive: 2.82 µM [activator, single point] |
| CC(=O)Nc1ccc(NC(=O)C(C)OC(=O)C23CC4CC(CC(Cl)(C4)C2)C3)cc1 (stereo not drawn) | inconclusive: 10 µM [inhibitor, partial curve, poor fit] |
| CCCCN(CC)S(=O)(=O)c1ccc(C(=O)N(CCCN(C)C)c2nc3cc(C)cc(C)c3s2)cc1 | inconclusive: 5.01 µM [inhibitor, full curve, poor fit] |
| COc1ccccc1CNc1nc2c(S(=O)(=O)c3ccccc3)nnn2c2ccc(Cl)cc12 | inactive |
| COc1cc(C(=O)N(Cc2ccccn2)CC2CCCO2)cc(OC)c1OC (stereo not drawn) | inconclusive: 32.6 µM [inhibitor, partial curve, poor fit] |
| CCNc1nc(N)c(C(=O)c2ccc(Cl)s2)s1 | inconclusive: 0.316 µM [activator, partial curve, poor fit] |
| O=C(Nc1ccc(F)cc1)c1ccccc1 | inconclusive: 8.2 µM [activator, partial curve, poor fit] |
| C/C(=N\NC(=O)C(O)(c1ccccc1)c1ccccc1)c1ccc(C)o1 | inconclusive: 7.31 µM [inhibitor, partial curve] |
| CCCCc1c(O)nc2ccccn2c1=O | inactive |
| COc1cccc2sc(N(CCCN(C)C)C(=O)c3sc4ccccc4c3Cl)nc12 | inconclusive: 35.5 µM [inhibitor, partial curve, poor fit] |
| O=C(COc1ccc(Br)cc1CNC1CCCCC1)NCCc1ccccc1 | active: 11.2 µM |
| C#CCCCON=C1C[C@@H](O)[C@H](O)[C@H]2[C@@H]3C(=O)N(C4CCCCC4)C(=O)[C@@H]3CC[C@@H]12 | inactive |
| CN(C)C=Nc1c(C(=O)c2ccccc2)sc2nccc(N(C)C)c12 | inactive |
